PubChem BioAssay AID504786 – Drosophila RNAi Screening Center | 2011
Test: 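Fly genes required for HIF-dependent transcription when hypoxia is mimicked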 (primary screen). Cells: Drosophila S2 cells with a stable HIF luciferase reporter. Knock-down reagent: long dsRNA against Drosophila genes, about 0.2 µg dsRNA per well of a 384-well plate. Duration: three days of knock-down, then 20 h of DFO before reading. Treatment: desferrioxamine (DFO) at 100 µM, an iron chelator that mimics hypoxia, for 20 h. Measurement: 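HIF reporter luminescence in cells given 100 µM DFO for 20 h, using the mouse ldh-a hypoxia-response element, scored as per-plate z-scores; higher means greater loss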. Scale: z-score: higher = stronger loss of HIF reporter signal.
The screen tested about 21,000 reagents; this is an unselected part of those with a known target gene and a result. 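Primary screen; positive scores mean lost reporter signal, so the sign may be inverted from the usual convention.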 Not all columns of the deposit are shown. Reagent sequences are not shown.

Silencing of slbo [DRSC04716] resulted in: z-score, replicate 1 = -0.2.
Silencing of Send2 [DRSC01906] resulted in: z-score, replicate 1 = -0.4.
CG9993 [DRSC04599] scored z-score, replicate 1 = -0.1.
Knock-down of skd [DRSC11898] gave: z-score, replicate 1 = 0.8.
Knock-down of CG13634 [DRSC14635] gave: z-score, replicate 1 = 0.4.
With knock-down of Mgtor [DRSC05958], the record shows z-score, replicate 1 = -0.4.
Against Myo10A [DRSC19834], the entry reads z-score, replicate 1 = -0.3.
Against Myo10A [DRSC19837], the values are z-score, replicate 1 = -0.3.
CG13562 [DRSC04200] scored z-score, replicate 1 = -0.5.
Depletion of Ir94g [DRSC15231] gave: z-score, replicate 1 = -0.2.
Silencing of CG11247 [DRSC11643] came out at: z-score, replicate 1 = -0.3.
For CG9698 [DRSC16539] the deposit lists z-score, replicate 1 = -0.2.
With knock-down of cal1 [DRSC15725], the record shows z-score, replicate 1 = 0.
Against Dhrs4 [DRSC09773], the entry reads z-score, replicate 1 = -0.1.
Depletion of Fatp2 [DRSC03971] resulted in: z-score, replicate 1 = 0.
With knock-down of Fatp2 [DRSC04178], the record shows z-score, replicate 1 = -0.3.
Against Fatp2 [DRSC04330], the entry reads z-score, replicate 1 = -0.4.
Silencing of CG13631 [DRSC14632] resulted in: z-score, replicate 1 = -0.3.
Depletion of CG14589 [DRSC04866] gave: z-score, replicate 1 = -0.1.
CG11149 [DRSC02130] showed z-score, replicate 1 = 0.
CG34204 [DRSC03897] showed z-score, replicate 1 = -0.6.
mRpL12 [DRSC10467] showed z-score, replicate 1 = 0.6.
Acsl [DRSC07252] gave z-score, replicate 1 = -0.5.
Knock-down of Sema5c [DRSC11279] resulted in: z-score, replicate 1 = -0.2.
Silencing of CG2004 [DRSC18200] resulted in: z-score, replicate 1 = -0.3.
Tdrd3 [DRSC10016] showed z-score, replicate 1 = 0.1.
Knock-down of Gr93c [DRSC14587] gave: z-score, replicate 1 = 0.7.

Taken from above:
Value for Fatp2 [DRSC04330] under “z-score, replicate 1”: -0.4
cal1 [DRSC15725], z-score, replicate 1 → 0
CG9698 [DRSC16539], z-score, replicate 1: -0.2
Entry for CG34204 [DRSC03897] in “z-score, replicate 1”: -0.6
